Where a name gives a salt, the structure may show the parent alone. The list shows a part of the results. Repeats in this data set agree poorly, so a single value says little.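 ReNCell VM, a human fetal ventral-midbrain neural progenitor line, was differentiated without mitogens. Blinded raters scored images stained for doublecortin (early neurons) or tyrosine hydroxylase (dopaminergic neurons) against untreated wells (0 = no change). Scores were averaged across repeats and both raters, and compounds averaging 2 or more were selected as hits for retesting.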
How the values were obtained:
[1] = test system: ReNCell VM; assay: neuronal differentiation score (DCX+ cell fraction vs untreated, manual image score) (score (-3 to 3)); higher = more neuronal differentiation; details: 2 uM, 2 weeks
[2] = test system: ReNCell VM; assay: dopaminergic neuron differentiation score (TH+ cell fraction vs untreated, manual image score) (score (0 to 3)); higher = more TH+ dopaminergic neuron differentiation; details: 2 uM, 4 weeks, BDNF 10 ng/ml + GDNF 10 ng/ml

**Q.** With `CC(=O)Nc1nnc(S(N)(=O)=O)s1` as the molecule, how does the neuronal differentiation score ([1]; library: Spectrum) read?
**A.** inactive: 0

**Q.** And the “dopaminergic neuron differentiation score” value ([2]; library: Spectrum)?
**A.** inactive: 0

**Q.** For `COc1ccc(-c2cc(=O)c3c(O)c(OC)c(O[C@@H]4O[C@H](CO[C@@H]5O[C@@H](C)[C@H](O)[C@@H](O)[C@H]5O)[C@@H](O)[C@H](O)[C@H]4O)cc3o2)cc1`, which neuronal differentiation score ([1]; library: Spectrum) is on record?
**A.** inactive: 0

**Q.** And the “dopaminergic neuron differentiation score” value ([2]; library: Spectrum)?
**A.** inactive: 0

**Q.** Which neuronal differentiation score ([1]; library: Spectrum) does the source give for `CCc1ccc(CCOc2ccc(CC3SC(=O)NC3=O)cc2)nc1` (stereo not drawn) here?
**A.** inactive: 0

**Q.** And the “dopaminergic neuron differentiation score” value ([2]; library: Spectrum)?
**A.** inactive: 0

**Q.** With `CC(=O)OCC(COC(C)=O)OC(C)=O` as the molecule, how does the neuronal differentiation score ([1]; library: Spectrum) read?
**A.** inactive: 0

**Q.** And the “dopaminergic neuron differentiation score” value ([2]; library: Spectrum)?
**A.** inactive: 0

**Q.** For `CCCCOC(=O)c1ccc(O)cc1` [Butylparaben], which neuronal differentiation score ([1]; library: Prestwick) is on record?
**A.** inactive: 0

**Q.** And the “dopaminergic neuron differentiation score” value ([2]; library: Prestwick)?
**A.** inactive: 0

**Q.** For `CC1COc2c(N3CCN(C)CC3)c(F)cc3c(=O)c(C(=O)O)cn1c23` (stereo not drawn), which neuronal differentiation score ([1]; library: Spectrum) is on record?
**A.** inactive: -1

**Q.** What about the “dopaminergic neuron differentiation score” value ([2]; library: Spectrum) of the same molecule?
**A.** inactive: 0

**Q.** For `CCN[C@H]1CN(CCCOC)S(=O)(=O)c2sc(S(N)(=O)=O)cc21`, which neuronal differentiation score ([1]; library: Spectrum) is on record?
**A.** inactive: 0

**Q.** And the “dopaminergic neuron differentiation score” value ([2]; library: Spectrum)?
**A.** inactive: 0

**Q.** `CC(=O)N[C@@H](Cc1ccccc1)C(=O)O` was tested. Which neuronal differentiation score ([1]; library: Spectrum) did it give?
**A.** inactive: 0

**Q.** And the “dopaminergic neuron differentiation score” value ([2]; library: Spectrum)?
**A.** inactive: 0

**Q.** What does the source list for `O=C(O)CCc1ccccc1` [Hydrocinnamic acid]?
**A.** neuronal differentiation score ([1]; library: Phytochemical): inactive: 0; dopaminergic neuron differentiation score ([2]; library: Phytochemical): inactive: 0

**Q.** With `NC(=O)C(=O)O` [Sodium Oxamate] as the molecule, how does the neuronal differentiation score ([1]; library: LOPAC) read?
**A.** inactive: 0

**Q.** And the “dopaminergic neuron differentiation score” value ([2]; library: LOPAC)?
**A.** inactive: 0

**Q.** With `NCc1ccc(S(N)(=O)=O)cc1` [Mafenide hydrochloride] as the molecule, how does the neuronal differentiation score ([1]; library: Prestwick) read?
**A.** inactive: 0

**Q.** What about the “dopaminergic neuron differentiation score” value ([2]; library: Prestwick) of the same molecule?
**A.** inactive: 0

**Q.** `COc1cc(OC)c(NC(=O)Nc2cc(C)on2)cc1Cl` was tested. Which neuronal differentiation score ([1]; library: Tocriscreen) did it give?
**A.** inactive: 0

**Q.** And the “dopaminergic neuron differentiation score” value ([2]; library: Tocriscreen)?
**A.** inactive: 0

**Q.** Which neuronal differentiation score ([1]; library: LOPAC) does the source give for `N[C@H](C(=O)O)c1cc(O)cc(O)c1` [(S)-3,5-Dihydroxyphenylglycine] here?
**A.** inactive: 0

**Q.** What about the “dopaminergic neuron differentiation score” value ([2]; library: LOPAC) of the same molecule?
**A.** inactive: 0

**Q.** For `CCCc1nc2c(C)cc(-c3nc4ccccc4n3C)cc2n1Cc1ccc(-c2ccccc2C(=O)O)cc1`, which neuronal differentiation score ([1]; library: Spectrum) is on record?
**A.** inactive: 0

**Q.** And the “dopaminergic neuron differentiation score” value ([2]; library: Spectrum)?
**A.** inactive: 0

— the supplement of paper PMC4635364
